Data on 1 molecule can be found in US20220119507A1 (OHEALTH BIOPHARMACEUTICAL SUZHOU, published 2022).

Sequences of proteins named here, by UniProt entry; tags and fusion partners are left off. A change or cut given only in a name is not applied to a line headed by its entry.
UniProt P26022: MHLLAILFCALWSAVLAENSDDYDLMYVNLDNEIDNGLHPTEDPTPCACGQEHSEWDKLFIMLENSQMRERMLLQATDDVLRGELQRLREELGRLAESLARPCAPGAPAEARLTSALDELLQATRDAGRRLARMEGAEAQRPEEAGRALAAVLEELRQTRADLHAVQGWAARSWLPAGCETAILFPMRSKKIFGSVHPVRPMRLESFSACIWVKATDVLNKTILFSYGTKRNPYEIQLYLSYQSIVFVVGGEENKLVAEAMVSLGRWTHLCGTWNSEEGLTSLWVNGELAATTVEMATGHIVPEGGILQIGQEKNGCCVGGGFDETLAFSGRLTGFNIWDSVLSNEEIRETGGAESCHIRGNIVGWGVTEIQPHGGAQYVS

These are yes or no findings as the source states them, for the method shown. Some results given as binding are weak or reduced against the parent protein; the word gives no strength.

The test concerns the target PTX3/FL, full-length fragment of PTX3 recombinant protein listed as SEQ ID NO:15 (human) (UniProt P26022). Put plainly: ELISA on coated PTX3/FL (FIG. 5). On the technique in general: ELISA stands for enzyme-linked immunosorbent assay.

B1: PTX3 monoclonal antibody of EXAMPLE 1 (antibody, V domains shown)
VH: EVQLQQSGAELVKPGASVKLSCTASDFNIKHTYLHWVLQRPEQGLEWIGRIDPANGDTKYDPKFQGKATITADTSSNTAYLHLSSLTSEDTAVYYCARVTTVVGFDYWGQGTTLTVSS
VL: QIVLTQSPAIMSTSLGERVTMTCTASSSVISTYLNWYQQKPGSSPKLWIYSTSNLASGVPARFSGSGSGTSYSLTISSMEAEDAATYFCHQFQRSPLTFGAGTKLELKR
notes: also called PTX3 mAb
Take B1: the binding result is reported as “binds”.
